Data taken from PMC5853561, “Affinity purification with metabolomic and proteomic analysis unravels diverse roles of nucleoside diphosphate kinases” (Journal of Experimental Botany, 2017).

Chains of the proteins cited; added tags and fusions are not shown.
UniProt Q9LZG0: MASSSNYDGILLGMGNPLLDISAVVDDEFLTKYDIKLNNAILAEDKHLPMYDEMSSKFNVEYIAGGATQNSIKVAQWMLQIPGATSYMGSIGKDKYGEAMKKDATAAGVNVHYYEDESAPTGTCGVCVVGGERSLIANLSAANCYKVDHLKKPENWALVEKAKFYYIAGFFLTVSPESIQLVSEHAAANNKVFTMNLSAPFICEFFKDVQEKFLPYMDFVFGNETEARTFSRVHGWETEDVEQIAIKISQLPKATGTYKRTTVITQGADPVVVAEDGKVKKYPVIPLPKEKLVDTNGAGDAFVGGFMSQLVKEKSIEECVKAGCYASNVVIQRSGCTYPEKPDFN

T1: Arabidopsis thaliana nucleoside diphosphate kinase 1, TAP-tagged (Arabidopsis thaliana) (UniProt P39207)
T1 sequence: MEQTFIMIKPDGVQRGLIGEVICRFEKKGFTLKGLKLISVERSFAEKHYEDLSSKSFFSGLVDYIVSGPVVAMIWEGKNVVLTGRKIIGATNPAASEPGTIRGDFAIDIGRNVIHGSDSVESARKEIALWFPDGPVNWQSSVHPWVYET

T2: Arabidopsis thaliana nucleoside diphosphate kinase 3, TAP-tagged (Arabidopsis thaliana) (UniProt O49203)
T2 sequence: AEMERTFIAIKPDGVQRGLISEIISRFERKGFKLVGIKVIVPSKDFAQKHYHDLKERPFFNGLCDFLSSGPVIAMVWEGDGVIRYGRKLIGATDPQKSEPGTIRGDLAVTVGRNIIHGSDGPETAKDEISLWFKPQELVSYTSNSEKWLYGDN


Columns and labels:
Assay in all cases: affinity purification with mass spectrometry; TAP-tagged NDPK (lines with N- and with C-terminal tag) captured from native lysate of Arabidopsis PSB-L cell cultures on IgG Sepharose, 1 h at 4 °C; lysis buffer 0.025 M Tris-HCl pH 7.5, 0.5 M NaCl, 0.015 M MgCl2, 0.5 mM DTT; wash 0.025 M Tris-HCl pH 7.5, 0.5 M NaCl; elution with AcTEV protease; LC/MS/MS; hits absent from empty vector and blank controls and present in both N- and C-tagged samples, then filtered by subcellular localisation
[1] = target: T1, Arabidopsis thaliana nucleoside diphosphate kinase 1, TAP-tagged (Arabidopsis thaliana)
[2] = target: T2, Arabidopsis thaliana nucleoside diphosphate kinase 3, TAP-tagged (Arabidopsis thaliana)
[3] = target: T1, Arabidopsis thaliana nucleoside diphosphate kinase 1, TAP-tagged (Arabidopsis thaliana); remark: listed apart in the source

Molecule	binding [1]	binding [3]	further results
isoform 2 of Clp protease adaptor-protein ClpF			binding [2]: binds
pyruvate kinase (enzyme)	binds		
alkaline/neutral invertase CINV1 (enzyme, UniProt Q9LQF2 1-551) MEGVGLRAVGSHCSLSEMDDLDLTRALDKPRLKIERKRSFDERSMSELSTGYSRHDGIHDSPRGRSVLDTPLSSARNSFEPHPMMAEAWEALRRSMVFFRGQPVGTLAAVDNTTDEVLNYDQVFVRDFVPSALAFLMNGEPDIVKHFLLKTLQLQGWEKRVDRFKLGEGVMPASFKVLHDPIRETDNIVADFGESAIGRVAPVDSGFWWIILLRAYTKSTGDLTLSETPECQKGMKLILSLCLAEGFDTFPTLLCADGCSMIDRRMGVYGYPIEIQALFFMALRSALSMLKPDGDGREVIERIVKRLHALSFHMRNYFWLDHQNLNDIYRFKTEEYSHTAVNKFNVMPDSIPEWVFDFMPLRGGYFVGNVGPAHMDFRWFALGNCVSILSSLATPDQSMAIMDLLEHRWAELVGEMPLKICYPCLEGHEWRIVTGCDPKNTRWSYHNGGSWPVLLWQLTAACIKTGRPQIARRAVDLIESRLHRDCWPEYYDGKLGRYVGKQARKYQTWSIAGYLVAKMLLEDPSHIGMISLEEDKLMKPVIKRSASWPQL		binds	

Second part, led by results:

binding [1]	binding [3]	Molecule	further results
binds		adenosine kinase 2 (from UniProt Q9LZG0 1-345) (enzyme)	
	binds	inositol-tetrakisphosphate 1-kinase 1 (enzyme, UniProt Q9SBA5 1-319) MSDSIQERYLVGYALAAKKQHSFIQPSLIEHSRQRGIDLVKLDPTKSLLEQGKLDCIIHKLYDVYWKENLHEFREKCPGVPVIDLPEAIERLHNRVSMLEVITQLRFPVSDSERFGVPEQVVVMDSSVLSGGGALGELKFPVIAKPLDADGSAKSHKMFLIYDQEGMKILKAPIVLQEFVNHGGVIFKVYVVGDHVKCVKRRSLPDISEEKIGTSKGSLPFSQISNLTAQEDKNIEYGEDRSLEKVEMPPLSFLTDLAKAMRESMGLNLFNFDVIRDAKDANRYLIIDINYFPGYAKMPSYEPVLTEFFWDMVTKKNHV	

Read-outs that look alike come from different tables or passages of the source. No constants are given. Whether binding was seen depends on the method and setting. Binding seen in cells or lysates may run through a third protein. These calls come from enrichment with a bait or labelling near it, and not all partners need be listed. Tags and fused reporters may be left off the sequences shown.
